Results from the supplement of paper PMC10849652.
The other results are listed elsewhere or left out.

The chains behind the UniProt entries cited, without tags or fusion partners. Where a name states a change or a piece, a line headed by the entry shows the natural chain unless it says otherwise.
UniProt Q96KR1: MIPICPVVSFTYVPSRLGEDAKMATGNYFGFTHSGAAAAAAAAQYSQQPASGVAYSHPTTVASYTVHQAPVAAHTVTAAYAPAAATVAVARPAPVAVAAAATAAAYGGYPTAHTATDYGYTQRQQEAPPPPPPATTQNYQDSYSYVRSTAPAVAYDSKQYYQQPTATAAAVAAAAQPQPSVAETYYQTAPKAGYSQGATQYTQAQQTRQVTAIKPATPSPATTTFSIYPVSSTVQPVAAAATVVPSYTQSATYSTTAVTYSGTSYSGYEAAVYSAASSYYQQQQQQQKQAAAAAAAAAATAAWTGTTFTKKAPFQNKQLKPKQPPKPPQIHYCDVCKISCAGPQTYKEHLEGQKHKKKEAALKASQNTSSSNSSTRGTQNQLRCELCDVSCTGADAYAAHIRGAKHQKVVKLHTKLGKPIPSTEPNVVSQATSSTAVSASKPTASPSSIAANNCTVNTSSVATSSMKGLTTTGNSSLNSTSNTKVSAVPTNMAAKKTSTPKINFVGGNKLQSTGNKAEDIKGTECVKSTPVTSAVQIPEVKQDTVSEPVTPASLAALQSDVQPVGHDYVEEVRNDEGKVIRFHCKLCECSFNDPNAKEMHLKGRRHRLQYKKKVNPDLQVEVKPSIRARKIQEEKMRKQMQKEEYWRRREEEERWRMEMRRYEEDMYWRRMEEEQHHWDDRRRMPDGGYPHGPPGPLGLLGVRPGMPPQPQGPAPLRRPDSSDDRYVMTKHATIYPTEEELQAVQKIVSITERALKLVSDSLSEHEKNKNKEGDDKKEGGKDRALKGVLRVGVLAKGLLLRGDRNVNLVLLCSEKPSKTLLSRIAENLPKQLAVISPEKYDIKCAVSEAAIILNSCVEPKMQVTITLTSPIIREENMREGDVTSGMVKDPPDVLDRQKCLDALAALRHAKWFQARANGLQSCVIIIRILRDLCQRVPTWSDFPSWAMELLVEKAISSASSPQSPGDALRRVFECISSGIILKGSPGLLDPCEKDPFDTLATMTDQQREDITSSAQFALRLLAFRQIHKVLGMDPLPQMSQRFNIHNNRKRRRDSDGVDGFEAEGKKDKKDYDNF
UniProt P16989, whole entry, looked up: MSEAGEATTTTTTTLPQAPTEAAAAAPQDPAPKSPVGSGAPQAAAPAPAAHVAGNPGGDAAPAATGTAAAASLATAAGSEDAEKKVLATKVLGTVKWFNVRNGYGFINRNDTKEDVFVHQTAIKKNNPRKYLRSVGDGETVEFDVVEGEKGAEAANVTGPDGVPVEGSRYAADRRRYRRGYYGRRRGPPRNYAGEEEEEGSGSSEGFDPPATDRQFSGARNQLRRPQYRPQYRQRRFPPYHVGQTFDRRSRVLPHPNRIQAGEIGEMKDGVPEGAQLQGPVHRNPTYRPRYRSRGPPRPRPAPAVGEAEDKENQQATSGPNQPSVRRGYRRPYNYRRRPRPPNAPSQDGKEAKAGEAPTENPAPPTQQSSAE
UniProt Q8IX07: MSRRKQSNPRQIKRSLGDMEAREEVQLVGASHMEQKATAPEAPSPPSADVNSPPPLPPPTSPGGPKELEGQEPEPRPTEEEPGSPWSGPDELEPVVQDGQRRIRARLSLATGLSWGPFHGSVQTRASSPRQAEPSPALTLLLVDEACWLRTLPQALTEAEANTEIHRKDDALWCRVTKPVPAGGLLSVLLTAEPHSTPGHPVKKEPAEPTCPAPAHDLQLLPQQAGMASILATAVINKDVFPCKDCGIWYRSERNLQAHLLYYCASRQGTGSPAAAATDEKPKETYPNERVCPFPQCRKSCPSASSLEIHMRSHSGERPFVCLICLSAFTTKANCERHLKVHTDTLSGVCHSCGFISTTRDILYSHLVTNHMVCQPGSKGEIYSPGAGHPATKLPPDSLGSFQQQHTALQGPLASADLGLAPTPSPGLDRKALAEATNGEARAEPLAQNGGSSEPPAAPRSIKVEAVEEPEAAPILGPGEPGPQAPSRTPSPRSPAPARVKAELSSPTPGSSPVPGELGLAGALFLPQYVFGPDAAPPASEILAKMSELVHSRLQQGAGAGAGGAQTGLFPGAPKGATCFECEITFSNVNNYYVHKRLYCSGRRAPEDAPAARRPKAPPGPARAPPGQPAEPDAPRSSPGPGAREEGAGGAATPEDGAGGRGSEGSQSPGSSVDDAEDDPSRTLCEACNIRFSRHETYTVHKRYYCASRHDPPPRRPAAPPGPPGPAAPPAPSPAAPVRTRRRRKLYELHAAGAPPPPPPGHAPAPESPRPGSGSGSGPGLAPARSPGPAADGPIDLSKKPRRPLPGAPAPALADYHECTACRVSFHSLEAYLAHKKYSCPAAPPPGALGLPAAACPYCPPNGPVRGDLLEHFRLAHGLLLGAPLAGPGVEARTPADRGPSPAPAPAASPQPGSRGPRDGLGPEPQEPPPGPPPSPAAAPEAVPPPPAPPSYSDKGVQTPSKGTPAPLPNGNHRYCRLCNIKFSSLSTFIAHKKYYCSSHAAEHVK
UniProt O43167: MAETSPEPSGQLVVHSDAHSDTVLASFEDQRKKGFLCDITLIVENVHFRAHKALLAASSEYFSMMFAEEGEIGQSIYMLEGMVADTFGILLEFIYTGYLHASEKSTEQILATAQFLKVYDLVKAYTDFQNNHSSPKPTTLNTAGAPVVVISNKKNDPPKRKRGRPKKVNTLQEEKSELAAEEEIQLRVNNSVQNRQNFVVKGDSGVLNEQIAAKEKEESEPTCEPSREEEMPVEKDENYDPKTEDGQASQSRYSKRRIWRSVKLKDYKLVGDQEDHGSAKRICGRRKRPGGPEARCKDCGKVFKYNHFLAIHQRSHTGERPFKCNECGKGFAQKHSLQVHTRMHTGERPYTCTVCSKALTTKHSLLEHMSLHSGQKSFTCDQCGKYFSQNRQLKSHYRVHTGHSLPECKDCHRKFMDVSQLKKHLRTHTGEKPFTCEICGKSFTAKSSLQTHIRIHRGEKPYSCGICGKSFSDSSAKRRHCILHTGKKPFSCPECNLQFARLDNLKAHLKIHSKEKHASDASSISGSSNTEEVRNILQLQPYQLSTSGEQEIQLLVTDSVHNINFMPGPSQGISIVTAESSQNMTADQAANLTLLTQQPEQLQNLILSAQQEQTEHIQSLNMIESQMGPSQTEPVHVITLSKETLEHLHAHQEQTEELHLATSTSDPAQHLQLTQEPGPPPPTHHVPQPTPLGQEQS
UniProt Q9H5J0: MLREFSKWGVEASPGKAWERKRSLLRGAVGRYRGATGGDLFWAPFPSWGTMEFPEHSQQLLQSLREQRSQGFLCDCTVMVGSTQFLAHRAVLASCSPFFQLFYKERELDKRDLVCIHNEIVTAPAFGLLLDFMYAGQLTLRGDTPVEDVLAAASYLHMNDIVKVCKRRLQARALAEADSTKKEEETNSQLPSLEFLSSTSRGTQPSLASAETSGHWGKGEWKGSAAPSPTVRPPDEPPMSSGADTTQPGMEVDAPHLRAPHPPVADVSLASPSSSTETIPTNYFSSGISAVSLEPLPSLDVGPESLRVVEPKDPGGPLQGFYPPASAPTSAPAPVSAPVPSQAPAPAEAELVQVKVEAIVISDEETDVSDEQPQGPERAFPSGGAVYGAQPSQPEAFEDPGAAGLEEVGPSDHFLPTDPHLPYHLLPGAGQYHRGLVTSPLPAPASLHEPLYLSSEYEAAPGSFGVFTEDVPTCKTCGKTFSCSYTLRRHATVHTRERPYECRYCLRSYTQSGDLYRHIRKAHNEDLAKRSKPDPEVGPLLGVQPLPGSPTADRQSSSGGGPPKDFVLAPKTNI
UniProt O95405: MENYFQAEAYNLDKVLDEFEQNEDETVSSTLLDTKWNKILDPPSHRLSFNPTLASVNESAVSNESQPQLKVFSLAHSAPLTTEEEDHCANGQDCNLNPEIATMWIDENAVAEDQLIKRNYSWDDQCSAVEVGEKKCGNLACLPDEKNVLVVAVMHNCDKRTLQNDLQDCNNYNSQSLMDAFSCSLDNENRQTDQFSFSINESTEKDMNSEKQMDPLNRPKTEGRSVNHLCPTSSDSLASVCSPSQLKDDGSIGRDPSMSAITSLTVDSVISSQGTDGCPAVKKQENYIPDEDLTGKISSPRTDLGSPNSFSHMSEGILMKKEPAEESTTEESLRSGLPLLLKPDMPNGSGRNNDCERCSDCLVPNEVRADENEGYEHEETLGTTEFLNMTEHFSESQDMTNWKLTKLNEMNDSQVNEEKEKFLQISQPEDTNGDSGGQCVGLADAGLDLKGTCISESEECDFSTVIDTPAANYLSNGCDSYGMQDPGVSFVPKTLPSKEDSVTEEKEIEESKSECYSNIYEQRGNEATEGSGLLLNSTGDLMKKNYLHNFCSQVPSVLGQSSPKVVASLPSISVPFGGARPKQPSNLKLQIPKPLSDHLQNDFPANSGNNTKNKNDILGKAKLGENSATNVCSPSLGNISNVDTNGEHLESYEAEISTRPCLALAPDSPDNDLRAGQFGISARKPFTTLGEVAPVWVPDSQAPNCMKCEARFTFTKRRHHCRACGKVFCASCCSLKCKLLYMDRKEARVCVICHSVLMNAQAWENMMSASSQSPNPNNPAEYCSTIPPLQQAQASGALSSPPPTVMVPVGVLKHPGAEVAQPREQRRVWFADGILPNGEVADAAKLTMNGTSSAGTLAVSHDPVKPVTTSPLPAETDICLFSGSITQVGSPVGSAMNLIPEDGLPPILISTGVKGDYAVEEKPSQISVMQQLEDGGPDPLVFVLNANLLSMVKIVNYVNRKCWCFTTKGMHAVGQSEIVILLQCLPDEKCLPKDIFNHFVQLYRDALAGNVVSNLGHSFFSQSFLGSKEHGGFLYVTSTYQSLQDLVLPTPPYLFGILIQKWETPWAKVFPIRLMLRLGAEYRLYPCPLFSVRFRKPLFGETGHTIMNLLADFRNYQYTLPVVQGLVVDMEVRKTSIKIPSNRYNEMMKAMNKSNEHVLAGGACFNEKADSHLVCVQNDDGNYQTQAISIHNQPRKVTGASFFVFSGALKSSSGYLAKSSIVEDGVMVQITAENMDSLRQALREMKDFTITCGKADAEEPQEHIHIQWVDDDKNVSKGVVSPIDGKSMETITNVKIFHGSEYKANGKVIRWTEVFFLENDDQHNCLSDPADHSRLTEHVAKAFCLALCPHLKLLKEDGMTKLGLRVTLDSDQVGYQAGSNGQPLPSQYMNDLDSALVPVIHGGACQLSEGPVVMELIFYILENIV
UniProt Q9ULU4: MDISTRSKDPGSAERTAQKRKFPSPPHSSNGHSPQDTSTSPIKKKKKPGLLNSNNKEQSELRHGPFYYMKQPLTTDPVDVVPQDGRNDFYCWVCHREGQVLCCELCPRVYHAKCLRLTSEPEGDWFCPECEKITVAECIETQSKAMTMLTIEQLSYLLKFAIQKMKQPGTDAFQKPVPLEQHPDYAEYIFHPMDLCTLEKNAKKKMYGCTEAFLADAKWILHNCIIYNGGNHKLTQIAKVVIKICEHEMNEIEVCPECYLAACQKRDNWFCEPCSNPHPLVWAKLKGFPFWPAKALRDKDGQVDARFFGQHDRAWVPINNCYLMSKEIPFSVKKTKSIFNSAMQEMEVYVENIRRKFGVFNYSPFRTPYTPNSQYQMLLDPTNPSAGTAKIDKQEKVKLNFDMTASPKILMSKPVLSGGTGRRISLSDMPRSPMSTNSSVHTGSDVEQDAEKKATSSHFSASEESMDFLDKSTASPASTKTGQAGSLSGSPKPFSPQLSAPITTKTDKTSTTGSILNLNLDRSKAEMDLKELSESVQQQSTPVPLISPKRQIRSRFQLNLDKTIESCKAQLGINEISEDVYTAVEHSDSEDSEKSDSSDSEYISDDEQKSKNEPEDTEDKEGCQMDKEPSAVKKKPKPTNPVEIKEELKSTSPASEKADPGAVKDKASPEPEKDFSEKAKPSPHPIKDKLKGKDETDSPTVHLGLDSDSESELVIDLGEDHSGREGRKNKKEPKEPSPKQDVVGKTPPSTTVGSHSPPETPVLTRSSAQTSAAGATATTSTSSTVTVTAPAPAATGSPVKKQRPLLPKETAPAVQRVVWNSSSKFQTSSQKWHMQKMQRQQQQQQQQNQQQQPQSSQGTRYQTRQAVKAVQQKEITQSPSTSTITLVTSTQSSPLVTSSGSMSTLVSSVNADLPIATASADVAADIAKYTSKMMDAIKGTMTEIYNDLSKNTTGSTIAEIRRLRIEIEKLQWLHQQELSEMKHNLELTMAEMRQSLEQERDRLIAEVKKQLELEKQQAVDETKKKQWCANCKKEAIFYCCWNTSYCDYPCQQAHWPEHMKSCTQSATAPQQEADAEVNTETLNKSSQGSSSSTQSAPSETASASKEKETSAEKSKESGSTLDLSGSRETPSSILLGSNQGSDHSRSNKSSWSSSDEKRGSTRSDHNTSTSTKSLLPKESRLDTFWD
UniProt Q04917: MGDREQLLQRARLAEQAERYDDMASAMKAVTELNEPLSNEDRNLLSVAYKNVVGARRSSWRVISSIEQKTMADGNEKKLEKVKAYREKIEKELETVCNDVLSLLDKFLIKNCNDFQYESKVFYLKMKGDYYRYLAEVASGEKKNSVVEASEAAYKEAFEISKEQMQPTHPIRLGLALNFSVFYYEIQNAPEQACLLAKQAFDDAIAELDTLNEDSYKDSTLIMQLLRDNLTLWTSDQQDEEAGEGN

How the values were obtained:
Assay in all cases: log2 fold change, soluble protein after heating vs DMSO (PISA); higher = thermal stabilisation; K562 cells, 10 uM, 30 min; active = over 0.2 and 3.5 SD of the protein, either way, in both replicates (recomputed)
[1] = compound: C#Cc1cccc(Nc2ncnc3cc(OCCOC)c(OCCOC)cc23)c1 [erlotinib]
Method in brief: (§1)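 K562 cells at 2×10^6 cells/mL were treated with 10 μM compound for 30 min. Aliquots were heated for 3 min across 48°C-58°C, pooled, and extracted in PBS with 0.5% NP-40 at 4°C; soluble protein was the supernatant after 21,000xg for 90 min. Soluble protein was quantified by TMTpro 16plex LC-MS/MS with channel sums equalised, and reported as log2 fold change in thermal stability against DMSO controls, with values from duplicates.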

[2] = compound: C/C(=N\NC(=O)C1=CC(=CC=C1)S(=O)(=O)N2CCOCC2)/C3=C(C=CC(=C3)Cl)O
Method in brief: as §1

[3] = compound: C1=CC(=C(C=C1Cl)C2=NC3=NC=CN=C3C(=N2)NC4=CC=NC=C4)F
Method in brief: as §1

[4] = compound: C1=CC(=CC=C1C2=NC3=C(N2)C=C(C=C3)C(=O)N)OC4=CC=C(C=C4)Cl
Method in brief: as §1

[5] = compound: C1=CC2=C(C=CC(=C2)/C=C\3/C(=O)NC(=NCC4=CC=CS4)S3)N=C1
Method in brief: as §1

[6] = compound: C1=CC2=NC=CN=C2C=C1/C=C/3\C(=O)NC(=O)S3
Method in brief: as §1

[7] = compound: C1=CC=C(C=C1)C2=NC(=C(N2)C3=CC=NC=C3)C4=CC(=C(C=C4)Cl)O
Method in brief: as §1

[8] = compound: C1=CC=C2C(=C1)C3=NNC4=CC=CC(=C43)C2=O
Method in brief: as §1

[9] = compound: C1CCN(C1)C(=O)NC2=CC=CC(=C2)NC3=NC=C(C(=N3)NCCC4=CN=CN4)Br
Method in brief: as §1

[10] = compound: C1CN(CCC1(CC2=CC=C(C=C2)Cl)N)C3=NC=NC4=C3C=CN4
Method in brief: as §1

Measured: log2 fold change

YME1L1 (UniProt Q96TA2)
inactive: [1] 0.032 | [2] -0.028 | [3] -0.029 | [4] 0.013 | [5] 0.019 | [6] 0.01 | [7] -0.037 | [8] -0.008 | [9] 0.014 | [10] 0.008

ZFR (UniProt Q96KR1)
inactive: [1] 0.1 | [3] -0.444 | [4] -0.049 | [6] 0.014 | [7] -0.044 | [9] -0.039 | [10] -0.17

YBX3 isoform 2 (UniProt P16989)
inactive: [1] -0.089 | [2] -0.506 | [3] -0.406 | [4] 0.017 | [5] -0.236 | [6] 0.007 | [7] -0.229 | [8] -0.303 | [9] 0.135 | [10] -0.084

YIPF3 (UniProt Q9GZM5)
inactive: [1] 0.021 | [2] -0.021 | [3] -0.013 | [4] -0.008 | [5] 0.079 | [6] 0.018 | [7] 0.009 | [8] 0.007 | [9] -0.097 | [10] 0.024

ZFPM1 (UniProt Q8IX07)
inactive: [1] 0.172 | [3] -0.045 | [4] 0.096 | [6] 0.17 | [7] 0.034 | [9] -0.156 | [10] 0.177

ZBTB24 (UniProt O43167)
inactive: [1] -0.208 | [2] -0.28 | [3] -0.467 | [4] -0.001 | [5] -0.142 | [7] 0.309 | [8] -0.026 | [9] 0.14 | [10] -0.234

Looked up one by one from above (2):
YBX3 isoform 2 (UniProt P16989)
inactive: [1] -0.089 | [2] -0.506 | [3] -0.406 | [4] 0.017 | [5] -0.236 | [6] 0.007 | [7] -0.229 | [8] -0.303 | [9] 0.135 | [10] -0.084

ZBTB24 (UniProt O43167)
inactive: [1] -0.208 | [2] -0.28 | [3] -0.467 | [4] -0.001 | [5] -0.142 | [7] 0.309 | [8] -0.026 | [9] 0.14 | [10] -0.234

(continued)

ZNF217 (UniProt O75362)
inactive: [1] 0.001 | [2] 0.074 | [3] 0.168 | [4] 0.015 | [5] 0.007 | [6] 0.007 | [7] -0.014 | [8] 0.03 | [9] 0.01 | [10] 0.197

ZDHHC4 (UniProt Q9NPG8)
inactive: [1] 0.178 | [3] 0.096 | [4] 0.053 | [6] -0.022

ZBTB3 (UniProt Q9H5J0)
inactive: [1] 0.056 | [2] 0.143 | [4] 0.155 | [5] -0.22 | [6] 0.075 | [7] -0.169 | [8] 0.186 | [9] 0.028 | [10] -0.052

ZFYVE9 (UniProt O95405)
inactive: [1] 0.08 | [3] 0.044 | [4] 0.029 | [6] -0.079 | [7] 0.07 | [9] 0.073 | [10] -0.006

ZCRB1 (UniProt Q8TBF4)
inactive: [1] -0.059 | [4] 0.08

ZMYND8 isoform 19 (UniProt Q9ULU4)
inactive: [1] 0.01 | [3] -0.247 | [4] 0.056 | [6] 0.183

ZDHHC13 (UniProt Q8IUH4)
inactive: [1] 0.045 | [2] -0.019 | [3] -0.189 | [4] -0.115 | [5] -0.018 | [7] 0.339 | [8] -0.007

ZMYM4 (UniProt Q5VZL5)
inactive: [1] 0.077 | [3] 0.176 | [4] -0.034 | [6] -0.028 | [7] 0.018 | [9] 0.071 | [10] -0.091

ZFPL1 (UniProt O95159)
inactive: [1] -0.022 | [2] 0.099 | [3] 0.101 | [4] 0.055 | [5] 0.01 | [6] 0.021 | [7] -0.119 | [8] -0.055 | [9] -0.047 | [10] 0.071

ZDHHC7 isoform 2 (UniProt Q9NXF8)
inactive: [1] 0.09 | [2] 0.057 | [3] 0.093 | [4] 0.022 | [5] 0.161 | [7] 0.026 | [8] 0.01 | [9] 0.028 | [10] 0

XPNPEP1 isoform 3 (UniProt Q9NQW7)
inactive: [1] -0.005 | [2] -0.069 | [3] 0.067 | [4] 0.022 | [5] 0.076 | [6] -0.003 | [7] 0.048 | [8] 0.04 | [9] 0 | [10] 0.033

YWHAH (UniProt Q04917)
inactive: [1] -0.036 | [2] -0.001 | [3] -0.194 | [4] 0.01 | [5] -0.033 | [6] 0.016 | [7] 0.024 | [8] -0.005 | [9] -0.034 | [10] 0.015
